Literature values, collected in paper PMC9505670, “The Effect of Short-Chain Fatty Acids on Growth of Cryptosporidium parvum In Vitro” (Microorganisms, 2022).

System: CpHDAC3
Conditions: recombinant protein; cited from earlier work

Structure (SMILES): O=C(CCCCCCC(=O)Nc1ccccc1)NO [vorinostat]
- inhibition of CpHDAC3: have activity
